No constants are given. Whether binding was seen depends on the method and setting. In cells and extracts the contact can be indirect. Some results given as binding are weak or reduced against the parent protein; the word gives no strength.
Key:
Flag-MAVS (human) = Flag-MAVS (human) (UniProt Q7Z434); assay: co-IP; HEK293 cells transfected, lysed 24 h later in 0.5% Triton X-100 buffer (20 mM Tris pH 7.5, 150 mM NaCl, 1 mM EDTA, 10% glycerol); anti-Flag agarose beads 4 h or anti-Myc antibody overnight at 4°C with protein A/G beads; immunoblot; for MAVSΔTM also with co-expressed activated MAVS (Figure S10B)
MAVSΔCARD (human) = MAVSΔCARD (human) (UniProt Q7Z434); assay: as above
[1] = target: endogenous MAVS (human (endogenous in HEK293)) (UniProt Q7Z434); assay: co-IP; endogenous proteins; cells lysed in 1% NP-40 buffer; anti-MAVS antibody or control IgG overnight at 4°C, protein A/G beads; immunoblot

By UniProt entry, the sequences of proteins in these tests, tags left out. Where a name states a change or a piece, a line headed by the entry shows the natural chain unless it says otherwise. Chains listed by the source or under a name are the forms on record and can include a tag or linker. Residues count along the entry.
UniProt Q7Z434: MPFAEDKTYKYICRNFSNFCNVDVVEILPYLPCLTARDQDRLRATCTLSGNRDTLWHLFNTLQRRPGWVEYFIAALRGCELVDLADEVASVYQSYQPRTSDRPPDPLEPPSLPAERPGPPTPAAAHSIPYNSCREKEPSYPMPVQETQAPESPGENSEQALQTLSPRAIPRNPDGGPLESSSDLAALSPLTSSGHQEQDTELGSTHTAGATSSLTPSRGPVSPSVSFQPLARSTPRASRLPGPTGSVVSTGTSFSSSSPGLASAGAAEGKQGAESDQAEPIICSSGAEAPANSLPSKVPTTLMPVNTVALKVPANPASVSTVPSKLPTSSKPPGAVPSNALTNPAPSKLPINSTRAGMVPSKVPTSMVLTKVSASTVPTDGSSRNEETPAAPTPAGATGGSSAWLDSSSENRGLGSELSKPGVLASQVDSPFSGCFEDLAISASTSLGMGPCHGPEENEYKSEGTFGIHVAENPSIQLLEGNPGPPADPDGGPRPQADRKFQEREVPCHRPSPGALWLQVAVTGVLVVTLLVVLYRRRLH
MAVSΔCARD (Q7Z434, form named): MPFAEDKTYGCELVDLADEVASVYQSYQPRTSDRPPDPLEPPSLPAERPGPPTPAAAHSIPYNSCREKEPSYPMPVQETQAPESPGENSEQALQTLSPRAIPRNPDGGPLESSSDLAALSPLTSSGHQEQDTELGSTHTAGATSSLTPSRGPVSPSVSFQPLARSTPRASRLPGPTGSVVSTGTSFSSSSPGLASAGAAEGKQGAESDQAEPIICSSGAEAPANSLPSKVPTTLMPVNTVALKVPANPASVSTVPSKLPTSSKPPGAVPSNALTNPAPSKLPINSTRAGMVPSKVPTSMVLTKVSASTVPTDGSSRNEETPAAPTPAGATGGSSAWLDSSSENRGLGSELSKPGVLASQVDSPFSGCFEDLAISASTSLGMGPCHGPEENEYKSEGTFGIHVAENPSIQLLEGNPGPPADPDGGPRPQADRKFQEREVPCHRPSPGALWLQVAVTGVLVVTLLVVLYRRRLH
UniProt P10606, residues 32-129: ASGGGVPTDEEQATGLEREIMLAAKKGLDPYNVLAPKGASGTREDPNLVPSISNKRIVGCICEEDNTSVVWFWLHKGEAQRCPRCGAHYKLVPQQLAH

| Substance | binding (Flag-MAVS (human)) | binding (MAVSΔCARD (human)) | binding [1] |
| --- | --- | --- | --- |
| epitope-tagged COX5B (from UniProt P10606 32-129) | binds | no binding | – |
| endogenous COX5B (from UniProt P10606 32-129) | – | – | binds |

Source: paper PMC3534373
